Reference: patent US10011570B2, “Nucleic acid binding dyes with improved safety” (Biotium, Inc., priority 2013, dated 2018)
Entries after “also recorded” stand apart in the source; their conditions may differ.

Assays:
Glove permeability test = settings: 3.25 uM dye (5× gel staining concentration), 48 hours
linearized plasmid DNA = experiment: Dye carryover after gel extraction of nucleic acids from agarose gels; settings: silica spin column gel extraction kits, exposure up to 12 seconds

SMILES | dye detected inside / leaked through the glove finger (Glove permeability test) | dye carryover after gel extraction (linearized plasmid DNA)
C[N+](C)(C)CCC[n+]1c(-c2ccc(S(=O)(=O)[O-])cc2)c2cc(N)ccc2c2ccc(N)cc21.[I-] [Dye No. 11] | no significant amount; also recorded: minimal amount | 
CC[N+](C)(CC)CCC[n+]1c(-c2ccc(S(=O)(=O)[O-])cc2)c2cc(N)ccc2c2ccc(N)cc21.[I-] [Dye No. 10] |  | no visible dye carryover
C[n+]1c(C=C2C=CN(CCCSCC(N)C(=O)[O-])c3ccccc32)sc2ccccc21.I (stereo not shown) [Dye No. 4] | no significant amount; also recorded: minimal amount | no visible dye carryover
